Laboratory results: the supplement of paper PMC10032668
Some of the results follow. The list holds hits alone, and they repeat only in part.

The chains behind the UniProt entries cited, without tags or fusion partners.
AARS, P49588, UniProt P49588, whole entry: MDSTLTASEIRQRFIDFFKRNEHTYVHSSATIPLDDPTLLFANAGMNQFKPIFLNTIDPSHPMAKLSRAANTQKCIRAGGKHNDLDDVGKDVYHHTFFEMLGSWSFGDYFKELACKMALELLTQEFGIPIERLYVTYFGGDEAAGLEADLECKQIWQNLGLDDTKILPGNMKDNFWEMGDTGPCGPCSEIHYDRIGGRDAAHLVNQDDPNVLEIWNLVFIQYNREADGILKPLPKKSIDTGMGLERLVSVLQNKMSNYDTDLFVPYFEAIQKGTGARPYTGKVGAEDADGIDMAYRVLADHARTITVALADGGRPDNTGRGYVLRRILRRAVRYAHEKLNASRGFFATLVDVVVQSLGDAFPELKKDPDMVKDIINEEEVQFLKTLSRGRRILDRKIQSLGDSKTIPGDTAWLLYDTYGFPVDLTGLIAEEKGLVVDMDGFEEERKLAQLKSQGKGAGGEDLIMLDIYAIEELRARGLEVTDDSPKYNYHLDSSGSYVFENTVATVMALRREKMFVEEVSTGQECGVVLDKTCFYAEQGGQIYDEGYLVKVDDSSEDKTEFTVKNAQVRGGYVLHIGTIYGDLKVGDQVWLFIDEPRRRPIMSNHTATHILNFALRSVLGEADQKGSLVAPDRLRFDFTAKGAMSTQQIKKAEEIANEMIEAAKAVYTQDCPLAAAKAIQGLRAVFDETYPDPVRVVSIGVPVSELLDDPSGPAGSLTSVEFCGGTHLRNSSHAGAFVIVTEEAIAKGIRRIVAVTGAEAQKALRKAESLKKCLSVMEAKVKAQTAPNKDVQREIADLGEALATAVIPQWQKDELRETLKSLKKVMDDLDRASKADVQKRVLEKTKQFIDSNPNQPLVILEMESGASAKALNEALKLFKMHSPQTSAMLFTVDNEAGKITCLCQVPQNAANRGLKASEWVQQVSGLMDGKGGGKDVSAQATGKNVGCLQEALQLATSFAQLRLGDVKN
CCT5, P48643, UniProt P48643, whole entry: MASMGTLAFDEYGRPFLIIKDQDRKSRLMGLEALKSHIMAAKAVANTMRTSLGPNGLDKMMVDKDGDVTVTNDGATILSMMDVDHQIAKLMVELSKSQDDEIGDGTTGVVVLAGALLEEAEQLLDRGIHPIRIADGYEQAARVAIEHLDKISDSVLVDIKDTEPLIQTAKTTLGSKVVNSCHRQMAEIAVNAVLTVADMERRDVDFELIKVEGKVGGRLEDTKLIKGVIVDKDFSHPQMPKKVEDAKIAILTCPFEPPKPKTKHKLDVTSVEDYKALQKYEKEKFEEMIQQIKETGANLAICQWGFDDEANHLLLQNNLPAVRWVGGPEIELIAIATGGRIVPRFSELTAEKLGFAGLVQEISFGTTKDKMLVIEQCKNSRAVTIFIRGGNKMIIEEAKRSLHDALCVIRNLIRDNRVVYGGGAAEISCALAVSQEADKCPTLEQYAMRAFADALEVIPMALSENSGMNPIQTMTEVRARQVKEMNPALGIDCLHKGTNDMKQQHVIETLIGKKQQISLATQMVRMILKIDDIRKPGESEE
NDUFS1, P28331, UniProt P28331, whole entry: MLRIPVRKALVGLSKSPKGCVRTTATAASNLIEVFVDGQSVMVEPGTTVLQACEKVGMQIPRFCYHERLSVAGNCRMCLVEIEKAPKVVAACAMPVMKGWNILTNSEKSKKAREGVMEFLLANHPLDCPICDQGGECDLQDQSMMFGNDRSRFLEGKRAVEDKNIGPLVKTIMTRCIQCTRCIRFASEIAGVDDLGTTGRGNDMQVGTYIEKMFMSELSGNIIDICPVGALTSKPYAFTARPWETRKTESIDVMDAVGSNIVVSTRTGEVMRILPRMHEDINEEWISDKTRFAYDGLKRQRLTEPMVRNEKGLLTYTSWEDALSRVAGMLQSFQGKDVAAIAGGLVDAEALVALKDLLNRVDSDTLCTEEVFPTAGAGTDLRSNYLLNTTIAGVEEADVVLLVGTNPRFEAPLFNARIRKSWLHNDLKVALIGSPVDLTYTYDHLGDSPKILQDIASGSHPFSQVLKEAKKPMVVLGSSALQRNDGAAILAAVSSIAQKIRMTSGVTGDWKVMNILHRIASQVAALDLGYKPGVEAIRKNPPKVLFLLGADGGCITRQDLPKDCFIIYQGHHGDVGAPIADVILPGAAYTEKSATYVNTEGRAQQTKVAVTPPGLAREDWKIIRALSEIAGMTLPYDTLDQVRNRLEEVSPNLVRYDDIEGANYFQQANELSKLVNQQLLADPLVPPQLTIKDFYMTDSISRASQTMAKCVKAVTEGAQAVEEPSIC
AARS2, Q5JTZ9, UniProt Q5JTZ9, whole entry: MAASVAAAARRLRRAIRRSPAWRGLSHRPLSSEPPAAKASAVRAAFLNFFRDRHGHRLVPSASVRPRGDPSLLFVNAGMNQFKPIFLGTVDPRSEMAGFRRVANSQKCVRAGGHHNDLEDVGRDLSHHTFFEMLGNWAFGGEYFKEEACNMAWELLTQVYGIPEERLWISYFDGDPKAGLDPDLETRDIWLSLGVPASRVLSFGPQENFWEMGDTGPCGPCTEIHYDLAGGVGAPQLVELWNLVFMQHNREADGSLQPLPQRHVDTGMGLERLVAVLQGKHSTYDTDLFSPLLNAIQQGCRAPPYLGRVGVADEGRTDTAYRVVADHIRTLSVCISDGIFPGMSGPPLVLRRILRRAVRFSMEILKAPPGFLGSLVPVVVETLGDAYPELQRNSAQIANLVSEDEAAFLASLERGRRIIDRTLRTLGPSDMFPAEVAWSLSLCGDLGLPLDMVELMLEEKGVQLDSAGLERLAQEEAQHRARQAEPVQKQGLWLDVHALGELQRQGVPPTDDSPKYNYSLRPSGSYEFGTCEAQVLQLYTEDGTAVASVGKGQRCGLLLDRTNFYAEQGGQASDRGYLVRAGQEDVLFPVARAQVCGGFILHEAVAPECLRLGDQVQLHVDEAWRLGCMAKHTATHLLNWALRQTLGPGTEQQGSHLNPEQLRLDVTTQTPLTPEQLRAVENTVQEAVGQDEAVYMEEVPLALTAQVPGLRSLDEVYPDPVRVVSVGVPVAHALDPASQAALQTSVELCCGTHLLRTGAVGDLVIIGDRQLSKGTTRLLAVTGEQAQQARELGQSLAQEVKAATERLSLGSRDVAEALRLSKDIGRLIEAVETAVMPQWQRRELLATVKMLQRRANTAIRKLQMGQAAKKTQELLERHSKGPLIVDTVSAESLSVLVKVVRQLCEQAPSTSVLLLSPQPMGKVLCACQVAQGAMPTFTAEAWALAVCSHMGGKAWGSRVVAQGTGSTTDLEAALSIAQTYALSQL
CPSF6, Q16630, UniProt Q16630, whole entry: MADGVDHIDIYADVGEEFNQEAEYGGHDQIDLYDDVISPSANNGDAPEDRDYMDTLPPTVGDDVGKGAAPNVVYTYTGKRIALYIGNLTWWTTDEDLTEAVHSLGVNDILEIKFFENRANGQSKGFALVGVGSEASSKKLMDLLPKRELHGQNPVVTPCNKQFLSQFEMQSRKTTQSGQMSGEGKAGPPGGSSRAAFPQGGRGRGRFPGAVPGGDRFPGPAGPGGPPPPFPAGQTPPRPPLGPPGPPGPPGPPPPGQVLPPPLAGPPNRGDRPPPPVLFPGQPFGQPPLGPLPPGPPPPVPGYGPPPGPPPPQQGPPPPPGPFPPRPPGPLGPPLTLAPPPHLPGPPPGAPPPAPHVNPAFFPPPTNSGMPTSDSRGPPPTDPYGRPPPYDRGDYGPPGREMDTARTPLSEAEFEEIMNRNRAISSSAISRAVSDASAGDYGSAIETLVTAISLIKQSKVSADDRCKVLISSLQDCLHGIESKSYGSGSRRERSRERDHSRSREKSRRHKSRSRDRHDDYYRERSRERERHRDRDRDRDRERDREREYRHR
NDUFA7, O95182, UniProt O95182, whole entry: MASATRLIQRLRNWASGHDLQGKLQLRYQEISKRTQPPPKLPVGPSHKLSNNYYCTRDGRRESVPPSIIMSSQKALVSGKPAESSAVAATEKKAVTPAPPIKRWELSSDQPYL
CASC3, O15234, UniProt O15234, whole entry: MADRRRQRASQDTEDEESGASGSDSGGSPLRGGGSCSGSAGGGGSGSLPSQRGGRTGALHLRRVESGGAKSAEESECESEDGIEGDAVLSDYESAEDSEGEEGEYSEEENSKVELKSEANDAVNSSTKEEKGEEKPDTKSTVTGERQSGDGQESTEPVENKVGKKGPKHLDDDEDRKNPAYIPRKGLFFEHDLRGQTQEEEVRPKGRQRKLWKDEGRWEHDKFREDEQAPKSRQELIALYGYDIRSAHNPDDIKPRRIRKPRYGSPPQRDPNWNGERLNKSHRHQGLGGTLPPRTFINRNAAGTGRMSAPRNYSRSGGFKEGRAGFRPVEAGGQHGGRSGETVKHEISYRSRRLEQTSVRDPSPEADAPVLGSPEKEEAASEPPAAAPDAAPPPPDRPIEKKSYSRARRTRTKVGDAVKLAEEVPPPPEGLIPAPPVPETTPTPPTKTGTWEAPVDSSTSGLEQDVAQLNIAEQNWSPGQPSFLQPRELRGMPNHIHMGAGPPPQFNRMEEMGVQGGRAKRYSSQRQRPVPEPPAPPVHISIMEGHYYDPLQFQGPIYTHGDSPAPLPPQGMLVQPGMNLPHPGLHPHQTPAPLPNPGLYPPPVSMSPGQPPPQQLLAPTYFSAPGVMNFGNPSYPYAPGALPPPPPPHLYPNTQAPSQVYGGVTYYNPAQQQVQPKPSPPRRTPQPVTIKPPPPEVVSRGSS
ECPAS, Q5VYK3, UniProt Q5VYK3, whole entry: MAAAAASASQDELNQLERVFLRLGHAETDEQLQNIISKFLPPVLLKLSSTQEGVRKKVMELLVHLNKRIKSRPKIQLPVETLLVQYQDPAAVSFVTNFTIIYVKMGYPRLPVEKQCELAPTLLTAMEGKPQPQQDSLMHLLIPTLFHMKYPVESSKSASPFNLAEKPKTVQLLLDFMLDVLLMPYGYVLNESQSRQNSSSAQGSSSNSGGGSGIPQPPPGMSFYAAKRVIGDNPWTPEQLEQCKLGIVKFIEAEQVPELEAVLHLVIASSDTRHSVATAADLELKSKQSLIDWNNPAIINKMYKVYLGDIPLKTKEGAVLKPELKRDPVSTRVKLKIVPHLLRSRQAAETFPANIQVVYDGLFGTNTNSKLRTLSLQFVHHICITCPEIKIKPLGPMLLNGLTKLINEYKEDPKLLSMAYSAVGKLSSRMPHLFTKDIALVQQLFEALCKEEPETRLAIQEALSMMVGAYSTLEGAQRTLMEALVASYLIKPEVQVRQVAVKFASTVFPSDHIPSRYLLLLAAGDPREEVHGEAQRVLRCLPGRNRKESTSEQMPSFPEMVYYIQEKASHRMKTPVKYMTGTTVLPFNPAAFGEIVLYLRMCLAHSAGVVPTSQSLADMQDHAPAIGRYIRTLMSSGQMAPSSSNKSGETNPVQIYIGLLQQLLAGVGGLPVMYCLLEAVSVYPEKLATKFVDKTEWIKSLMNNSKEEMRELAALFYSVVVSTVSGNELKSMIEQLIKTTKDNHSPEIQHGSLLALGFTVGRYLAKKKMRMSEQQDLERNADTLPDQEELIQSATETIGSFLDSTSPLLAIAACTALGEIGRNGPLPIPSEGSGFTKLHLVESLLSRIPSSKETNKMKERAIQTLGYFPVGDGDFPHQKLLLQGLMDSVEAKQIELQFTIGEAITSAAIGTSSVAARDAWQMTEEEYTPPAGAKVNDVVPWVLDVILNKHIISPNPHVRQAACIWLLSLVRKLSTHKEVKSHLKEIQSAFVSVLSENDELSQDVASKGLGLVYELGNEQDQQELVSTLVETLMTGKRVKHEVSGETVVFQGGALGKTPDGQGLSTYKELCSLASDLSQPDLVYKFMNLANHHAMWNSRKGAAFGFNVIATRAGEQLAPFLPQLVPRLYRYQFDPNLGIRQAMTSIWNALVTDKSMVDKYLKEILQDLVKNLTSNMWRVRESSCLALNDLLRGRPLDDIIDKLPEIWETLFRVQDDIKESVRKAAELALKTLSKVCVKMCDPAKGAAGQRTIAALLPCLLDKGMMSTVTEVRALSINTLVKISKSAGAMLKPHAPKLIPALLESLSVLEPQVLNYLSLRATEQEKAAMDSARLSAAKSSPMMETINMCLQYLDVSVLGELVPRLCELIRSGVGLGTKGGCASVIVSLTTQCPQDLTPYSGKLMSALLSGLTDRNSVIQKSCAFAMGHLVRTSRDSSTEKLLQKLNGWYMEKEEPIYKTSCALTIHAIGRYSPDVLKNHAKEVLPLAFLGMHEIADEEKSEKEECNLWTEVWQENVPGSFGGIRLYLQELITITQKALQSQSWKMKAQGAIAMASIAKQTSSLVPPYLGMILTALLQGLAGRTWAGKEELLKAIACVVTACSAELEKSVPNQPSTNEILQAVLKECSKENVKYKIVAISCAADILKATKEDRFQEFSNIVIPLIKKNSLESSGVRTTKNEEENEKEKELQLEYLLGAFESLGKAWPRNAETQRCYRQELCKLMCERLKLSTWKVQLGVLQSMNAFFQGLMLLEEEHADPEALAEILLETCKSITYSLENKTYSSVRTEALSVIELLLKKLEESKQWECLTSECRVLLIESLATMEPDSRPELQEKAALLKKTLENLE
NDUFA13, Q9P0J0, UniProt Q9P0J0, whole entry: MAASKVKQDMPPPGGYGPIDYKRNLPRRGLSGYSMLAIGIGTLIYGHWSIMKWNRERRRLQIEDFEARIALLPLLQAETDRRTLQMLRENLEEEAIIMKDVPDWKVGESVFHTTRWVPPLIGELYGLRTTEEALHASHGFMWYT

Tests used:
Test in all cases: PRISMA enrichment of interactor (LFQ) in peptide spot vs all other peptide spots (log2 fold change); higher = stronger / more specific binding of the interactor to the peptide
[1] = molecular target: AARS, P49588
Protocol: (§1)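 PRISMA: 15-aa overlapping tiles (offset 8 aa) of 60 microproteins, plus SOS1/GLUT1 control peptides, were spot-synthesized on cellulose membranes in triplicate. Membranes were incubated with benzonase-treated HEK293T lysate, and bound proteins were identified by LC-MS/MS with LFQ. Enrichment is the log2 fold change of each protein in one spot versus all other spots. Only interactors passing the significance cutoff are listed.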

[2] = molecular target: CCT5, P48643
Protocol: as §1

[3] = molecular target: CRIPT, Q9P021
Protocol: as §1

[4] = molecular target: FAM50A, Q14320
Protocol: as §1

[5] = molecular target: FEN1, P39748
Protocol: as §1

[6] = molecular target: KARS, Q15046
Protocol: as §1

[7] = molecular target: LMNB1, P20700
Protocol: as §1

[8] = molecular target: LUC7L3, O95232
Protocol: as §1

[9] = molecular target: MRPL43, Q8N983
Protocol: as §1

[10] = molecular target: MYBBP1A, Q9BQG0
Protocol: as §1

[11] = molecular target: NDUFS1, P28331
Protocol: as §1

[12] = molecular target: PDCD11, Q14690
Protocol: as §1

[13] = molecular target: RO60, P10155
Protocol: as §1

[14] = molecular target: SCP2, P22307
Protocol: as §1

[15] = molecular target: TARS, P26639
Protocol: as §1

[16] = molecular target: YWHAQ, P27348
Protocol: as §1

[17] = molecular target: YWHAZ, P63104
Protocol: as §1

[18] = molecular target: AARS2, Q5JTZ9
Protocol: as §1

[19] = molecular target: BAZ1B, Q9UIG0
Protocol: as §1

[20] = molecular target: BMS1, Q14692
Protocol: as §1

[21] = molecular target: CHMP5, Q9NZZ3
Protocol: as §1

[22] = molecular target: CPSF6, Q16630
Protocol: as §1

[23] = molecular target: CPSF7, Q8N684
Protocol: as §1

[24] = molecular target: DVL2, O14641
Protocol: as §1

[25] = molecular target: ECHS1, P30084
Protocol: as §1

[26] = molecular target: GAPVD1, Q14C86
Protocol: as §1

[27] = molecular target: HMGB2, P26583
Protocol: as §1

[28] = molecular target: HNRNPR, O43390
Protocol: as §1

[29] = molecular target: HS2ST1, Q7LGA3
Protocol: as §1

[30] = molecular target: KPNA6, O60684
Protocol: as §1

[31] = molecular target: MCCC2, Q9HCC0
Protocol: as §1

[32] = molecular target: MRPL45, Q9BRJ2
Protocol: as §1

[33] = molecular target: MTPAP, Q9NVV4
Protocol: as §1

[34] = molecular target: NACA
Protocol: as §1

[35] = molecular target: NGDN, Q8NEJ9
Protocol: as §1

[36] = molecular target: OLA1, Q9NTK5
Protocol: as §1

[37] = molecular target: OXSR1, O95747
Protocol: as §1

[38] = molecular target: POLE, Q07864
Protocol: as §1

[39] = molecular target: PRRC2A, P48634
Protocol: as §1

[40] = molecular target: RAB35, Q15286
Protocol: as §1

[41] = molecular target: RBBP7, Q16576
Protocol: as §1

[42] = molecular target: RBM22, Q9NW64
Protocol: as §1

[43] = molecular target: RPL26L1, Q9UNX3
Protocol: as §1

[44] = molecular target: SMC4, Q9NTJ3
Protocol: as §1

[45] = molecular target: STAU2, Q9NUL3
Protocol: as §1

[46] = molecular target: TLN1, Q9Y490
Protocol: as §1

[47] = molecular target: AATF, Q9NY61
Protocol: as §1

[48] = molecular target: ATP5PB, P24539
Protocol: as §1

[49] = molecular target: BCOR, Q6W2J9
Protocol: as §1

[50] = molecular target: C18orf25, Q96B23
Protocol: as §1

[51] = molecular target: CENPF, P49454
Protocol: as §1

[52] = molecular target: CKAP2, Q8WWK9
Protocol: as §1

[53] = molecular target: DDX27, Q96GQ7
Protocol: as §1

[54] = molecular target: DIS3, Q9Y2L1
Protocol: as §1

[55] = molecular target: EIF6, P56537
Protocol: as §1

[56] = molecular target: FAM83D, Q9H4H8
Protocol: as §1

[57] = molecular target: FGG, P02679
Protocol: as §1

[58] = molecular target: FLNA, P21333
Protocol: as §1

[59] = molecular target: HK1, P19367
Protocol: as §1

[60] = molecular target: HP, P00738
Protocol: as §1

[61] = molecular target: LARS2, Q15031
Protocol: as §1

[62] = molecular target: MOV10, Q9HCE1
Protocol: as §1

[63] = molecular target: NDUFA7, O95182
Protocol: as §1

[64] = molecular target: PFKL, P17858
Protocol: as §1

[65] = molecular target: PRPF6, O94906
Protocol: as §1

[66] = molecular target: SARDH, Q9UL12
Protocol: as §1

[67] = molecular target: SEMG2, Q02383
Protocol: as §1

[68] = molecular target: SLC25A24, Q6NUK1
Protocol: as §1

[69] = molecular target: SMU1, Q2TAY7
Protocol: as §1

[70] = molecular target: SNRNP40, Q96DI7
Protocol: as §1

[71] = molecular target: TAGLN2, P37802
Protocol: as §1

[72] = molecular target: TM9SF3, Q9HD45
Protocol: as §1

[73] = molecular target: TMEM256-PLSCR3
Protocol: as §1

[74] = molecular target: UTP18, Q9Y5J1
Protocol: as §1

[75] = molecular target: UTP23, Q9BRU9
Protocol: as §1

[76] = molecular target: XPO7, Q9UIA9
Protocol: as §1

[77] = molecular target: ZNF24, P17028
Protocol: as §1

[78] = molecular target: ZNF444, Q8N0Y2
Protocol: as §1

[79] = molecular target: ZNF771, Q7L3S4
Protocol: as §1

[80] = molecular target: ACTB, P60709
Protocol: as §1

[81] = molecular target: ALYREF, Q86V81
Protocol: as §1

[82] = molecular target: CASC3, O15234
Protocol: as §1

[83] = molecular target: ECPAS, Q5VYK3
Protocol: as §1

[84] = molecular target: MAPRE1, Q15691
Protocol: as §1

[85] = molecular target: NDUFA13, Q9P0J0
Protocol: as §1

[86] = molecular target: SHROOM3, Q8TF72
Protocol: as §1

[87] = molecular target: SUPT4H1, P63272
Protocol: as §1

[88] = molecular target: TOP2A, P11388
Protocol: as §1

[89] = molecular target: TSR1, Q2NL82
Protocol: as §1

[90] = molecular target: UBE2I, P63279
Protocol: as §1

DWKGLMKPAVMLMRL [TRDN-AS1]
PRISMA enrichment of interactor (log2) [1]: 6.62 | PRISMA enrichment of interactor (log2) [2]: 4.56 | PRISMA enrichment of interactor (log2) [3]: 4.86 | PRISMA enrichment of interactor (log2) [4]: 3.35 | PRISMA enrichment of interactor (log2) [5]: 5.04 | PRISMA enrichment of interactor (log2) [6]: 4.39 | PRISMA enrichment of interactor (log2) [7]: 6.42 | PRISMA enrichment of interactor (log2) [8]: 5.97 | PRISMA enrichment of interactor (log2) [9]: 3.91 | PRISMA enrichment of interactor (log2) [10]: 9.15 | PRISMA enrichment of interactor (log2) [11]: 3.86 | PRISMA enrichment of interactor (log2) [12]: 4.66 | PRISMA enrichment of interactor (log2) [13]: 3.2 | PRISMA enrichment of interactor (log2) [14]: 4.51 | PRISMA enrichment of interactor (log2) [15]: 3.89 | PRISMA enrichment of interactor (log2) [16]: 8.18 | PRISMA enrichment of interactor (log2) [17]: 4.97

AEYYLESLNKDKKHH [NDUFB3]
PRISMA enrichment of interactor (log2) [18]: 4.37 | PRISMA enrichment of interactor (log2) [19]: 4.84 | PRISMA enrichment of interactor (log2) [20]: 4.79 | PRISMA enrichment of interactor (log2) [21]: 4.33 | PRISMA enrichment of interactor (log2) [22]: 6.26 | PRISMA enrichment of interactor (log2) [23]: 5.35 | PRISMA enrichment of interactor (log2) [24]: 7.27 | PRISMA enrichment of interactor (log2) [25]: 9.66 | PRISMA enrichment of interactor (log2) [26]: 5.32 | PRISMA enrichment of interactor (log2) [27]: 4.08 | PRISMA enrichment of interactor (log2) [28]: 6.97 | PRISMA enrichment of interactor (log2) [29]: 5.92 | PRISMA enrichment of interactor (log2) [30]: 5.08 | PRISMA enrichment of interactor (log2) [31]: 7.84 | PRISMA enrichment of interactor (log2) [32]: 4.63 | PRISMA enrichment of interactor (log2) [33]: 4.31 | PRISMA enrichment of interactor (log2) [34]: 5.41 | PRISMA enrichment of interactor (log2) [35]: 5.1 | PRISMA enrichment of interactor (log2) [36]: 4.73 | PRISMA enrichment of interactor (log2) [37]: 6.26 | PRISMA enrichment of interactor (log2) [38]: 6.85 | PRISMA enrichment of interactor (log2) [39]: 4.47 | PRISMA enrichment of interactor (log2) [40]: 3.84 | PRISMA enrichment of interactor (log2) [41]: 6.61 | PRISMA enrichment of interactor (log2) [42]: 3.97 | PRISMA enrichment of interactor (log2) [43]: 4.19 | PRISMA enrichment of interactor (log2) [44]: 6.46 | PRISMA enrichment of interactor (log2) [45]: 4.11 | PRISMA enrichment of interactor (log2) [46]: 6.42

SPRGIHHCRPLGGTN
PRISMA enrichment of interactor (log2) [47]: 4.94 | PRISMA enrichment of interactor (log2) [48]: 4.79 | PRISMA enrichment of interactor (log2) [49]: 7.31 | PRISMA enrichment of interactor (log2) [50]: 5.18 | PRISMA enrichment of interactor (log2) [51]: 4.19 | PRISMA enrichment of interactor (log2) [52]: 6.24 | PRISMA enrichment of interactor (log2) [53]: 6.52 | PRISMA enrichment of interactor (log2) [54]: 4.71 | PRISMA enrichment of interactor (log2) [55]: 4.6 | PRISMA enrichment of interactor (log2) [56]: 6.84 | PRISMA enrichment of interactor (log2) [57]: 4.22 | PRISMA enrichment of interactor (log2) [58]: 4.77 | PRISMA enrichment of interactor (log2) [59]: 5.13 | PRISMA enrichment of interactor (log2) [60]: 4.54 | PRISMA enrichment of interactor (log2) [61]: 5.24 | PRISMA enrichment of interactor (log2) [62]: 10.3 | PRISMA enrichment of interactor (log2) [63]: 3.81 | PRISMA enrichment of interactor (log2) [64]: 4.92 | PRISMA enrichment of interactor (log2) [65]: 4.66 | PRISMA enrichment of interactor (log2) [66]: 4.29 | PRISMA enrichment of interactor (log2) [67]: 4.43 | PRISMA enrichment of interactor (log2) [68]: 9.35 | PRISMA enrichment of interactor (log2) [69]: 6.94 | PRISMA enrichment of interactor (log2) [70]: 5.35 | PRISMA enrichment of interactor (log2) [71]: 5.08 | PRISMA enrichment of interactor (log2) [72]: 4.73 | PRISMA enrichment of interactor (log2) [73]: 7.17 | PRISMA enrichment of interactor (log2) [74]: 5.6 | PRISMA enrichment of interactor (log2) [75]: 6.8 | PRISMA enrichment of interactor (log2) [76]: 5.26 | PRISMA enrichment of interactor (log2) [77]: 6.64 | PRISMA enrichment of interactor (log2) [78]: 4.34 | PRISMA enrichment of interactor (log2) [79]: 7.41

CRPLGGTNLEMGLVE
PRISMA enrichment of interactor (log2) [47]: 4.49 | PRISMA enrichment of interactor (log2) [80]: 5.09 | PRISMA enrichment of interactor (log2) [81]: 4.43 | PRISMA enrichment of interactor (log2) [82]: 5.74 | PRISMA enrichment of interactor (log2) [83]: 5.37 | PRISMA enrichment of interactor (log2) [84]: 4.44 | PRISMA enrichment of interactor (log2) [85]: 5.05 | PRISMA enrichment of interactor (log2) [86]: 9.16 | PRISMA enrichment of interactor (log2) [87]: 7.41 | PRISMA enrichment of interactor (log2) [88]: 4.66 | PRISMA enrichment of interactor (log2) [89]: 7.8 | PRISMA enrichment of interactor (log2) [90]: 3.95
